Columns and labels:
[1] = test system: BxPC3, carcinoma of pancreas; experiment: Cell growth inhibition, BxPC3 cells; type: cell-based; conditions: Homo sapiens, BXPC-3, 24 h, read-out: IC50, BxPC3, pancreas
[2] = test system: HT-29 human colon adenocarcinoma; experiment: Cell growth inhibition, HT-29 cells; type: cell-based; conditions: HT-29, 24 h, read-out: IC50, HT-29, colon

SMILES	IC50 [1]	IC50 [2]
O=C(C=Cc1ccccc1)Oc1ccc(CCl)cc1 [Compound 69, cinnamic acid 4-(chloromethyl)phenyl ester]	4 ± 1 µM	6 ± 1 µM
COc1ccc(C=CC(=O)Oc2ccc(CO[N+](=O)[O-])cc2)cc1OC [Compound 81, 3,4-dimethoxycinnamic acid 4-(nitrooxymethyl)phenyl ester]	18 ± 3 µM	33 ± 4 µM

Reference: US7585997B2, “Compounds and compositions for treating dysproliferative diseases, and methods of use thereof” (Chesterford Enterprises Limited, priority 2003, dated 2009)
